Experimental data: PubChem BioAssay AID1259424 (University of Nebraska Medical Center, 2018)
The whole screen tested about 14,000 reagents; shown is a random part of them. 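Higher correlation or smaller distance means closer resemblance to KSR1 loss; control wells, including KSR1 knockdowns, recur on many plates.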 No sequences are given here. The record does not give: the time to read-out.

Screen: 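Find knockdowns that reproduce the expression shifts seen after KSR1 loss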 (primary screen)
System: human HCT116 colon cancer cells
Reagent: siRNA pool against human genes, 50 nM
Read-out: 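Six signature mRNAs by branched-DNA multiplex assay, scaled to two housekeeping genes and non-targeting median, log2; matched to mean KSR1 knockdown profile by Pearson correlation and euclidean distance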
Reading the numbers: mean correlation with KSR1 profile and KSR1 correlation: higher = expression change more like KSR1 knockdown; mean distance from KSR1 profile: higher = expression change less like KSR1 knockdown

gene knocked down	mean correlation with KSR1 profile	mean distance from KSR1 profile	KSR1 correlation, replicate 1	KSR1 correlation, replicate 2	KSR1 correlation, replicate 3
CAPN10 (GeneID 11132)	-0.242	4.5	-0.413	-0.112	-0.0855
AXIN1 (GeneID 8312)	0.387	1.05	0.425	0.318	0.403
AAR2 (GeneID 25980)	-0.488	3	-0.15	-0.52	-0.593
BBC3 (GeneID 27113)	0.78	1.33	0.837	0.552	0.681
BAP1 (GeneID 8314)	-0.8	2.34	-0.735	-0.88	-0.699
ACKR4 (GeneID 51554)	0.93	0.601	0.897	0.933	0.825
HIBCH (GeneID 26275)	-0.364	2.03	-0.665	-0.501	-0.29
NRG1 (GeneID 3084)	-0.284	1.93	-0.383	-0.238	-0.194
CFDP1 (GeneID 10428)	-0.402	1.85	-0.346	-0.606	-0.202
MACF1 (GeneID 23499)	0.348	2.14	0.371	0.335	0.103
PRKD1 (GeneID 5587)	-0.302	2.23	-0.199	-0.0332	0.0558
LILRB1 (GeneID 10859)	-0.128	1.49	-0.314	-0.0792	0.184

Sorted by “KSR1 correlation, replicate 1” (ascending): 2 of the entries above.
gene knocked down	mean correlation with KSR1 profile	mean distance from KSR1 profile	KSR1 correlation, replicate 1	KSR1 correlation, replicate 2	KSR1 correlation, replicate 3
BAP1 (GeneID 8314)	-0.8	2.34	-0.735	-0.88	-0.699
ACKR4 (GeneID 51554)	0.93	0.601	0.897	0.933	0.825

The listing continues:
gene knocked down	mean correlation with KSR1 profile	mean distance from KSR1 profile	KSR1 correlation, replicate 1	KSR1 correlation, replicate 2	KSR1 correlation, replicate 3
POU3F2 (GeneID 5454)	0.635	3.45	0.815	0.631	0.508
BSG (GeneID 682)	-0.335	2.33	-0.444	-0.109	-0.178
TMEM128 (GeneID 85013)	0.503	1.37	0.347	0.0484	0.662
HACD1 (GeneID 9200)	0.248	0.923	0.357	0.0819	0.0387
SYCP2 (GeneID 10388)	0.0409	2.05	0.0688	0.0512	-0.138
TULP1 (GeneID 7287)	0.555	3.15	0.564	0.515	0.542
SLCO5A1 (GeneID 81796)	0.551	1.33	0.394	0.53	0.549
USP28 (GeneID 57646)	-0.234	1.53	-0.229	-0.24	-0.136
